Measured values published in PMC11446459.

Tests used:
[1] = target: T1, δ subunit of F1, cLUC fusion (Arabidopsis) (UniProt Q96252); assay: split reporter; luciferase complementation imaging (LCI), nLUC and cLUC fusions in co-infiltrated tobacco leaves, 48 h, 1 mM D-luciferin
T1 sequence: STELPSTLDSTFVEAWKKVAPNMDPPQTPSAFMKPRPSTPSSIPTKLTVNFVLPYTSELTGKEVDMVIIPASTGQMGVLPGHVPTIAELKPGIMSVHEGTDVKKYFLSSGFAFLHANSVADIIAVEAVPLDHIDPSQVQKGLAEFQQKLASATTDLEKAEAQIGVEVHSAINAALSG

[2] = target: T2, δ subunit of F1, split-YFP fusion (Arabidopsis) (UniProt Q96252); assay: split reporter; BiFC with split YFP in co-infiltrated tobacco leaves, YFP fluorescence observed 48 h after infiltration
T2 sequence: T1 sequence

[3] = target: T3, ε subunit of F1, split-YFP fusion (Arabidopsis) (UniProt Q96253); assay: as above
T3 sequence: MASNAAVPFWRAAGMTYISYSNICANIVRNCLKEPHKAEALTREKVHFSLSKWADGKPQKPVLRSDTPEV

[4] = target: T4, B9, split-YFP fusion (Arabidopsis) (UniProt Q945M1); assay: as above
T4 sequence: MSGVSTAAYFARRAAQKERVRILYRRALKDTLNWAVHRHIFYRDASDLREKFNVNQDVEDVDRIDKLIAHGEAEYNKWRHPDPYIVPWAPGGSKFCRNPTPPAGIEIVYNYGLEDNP

[5] = target: T5, γ subunit of F1, split-YFP fusion (Arabidopsis) (UniProt Q96250); assay: as above
T5 sequence: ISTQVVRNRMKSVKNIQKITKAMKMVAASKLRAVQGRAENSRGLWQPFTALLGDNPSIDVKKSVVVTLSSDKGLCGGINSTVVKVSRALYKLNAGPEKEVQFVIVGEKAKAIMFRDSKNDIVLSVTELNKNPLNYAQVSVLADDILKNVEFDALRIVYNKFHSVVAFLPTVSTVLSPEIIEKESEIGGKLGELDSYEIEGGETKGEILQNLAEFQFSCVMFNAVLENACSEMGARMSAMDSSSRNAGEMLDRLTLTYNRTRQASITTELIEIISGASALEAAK

[6] = target: T6, B9, GFP-tagged (Arabidopsis) (UniProt Q945M1); assay: co-IP; Flag- and GFP-tagged proteins co-expressed in tobacco leaves; lysate incubated with GFP-Nanoab-Magnetic Beads 2 h at 4°C, six washes; blots with anti-GFP and anti-Flag
T6 sequence: T4 sequence

[7] = target: T7, γ subunit of F1, GFP-tagged (Arabidopsis) (UniProt Q96250); assay: as above
T7 sequence: T5 sequence

[8] = target: T8, ε subunit of F1, GFP-tagged (Arabidopsis) (UniProt Q96253); assay: as above
T8 sequence: T3 sequence

binding [1]: binds
Substance: C1-FDX, nLUC fusion (Arabidopsis)

binding [2]: binds | binding [3]: binds | binding [4]: binds | binding [5]: binds
Substance: C1-FDX-cYFP (Arabidopsis)

binding [6]: binds | binding [7]: binds | binding [8]: binds
Substance: C1-FDX, Flag-tagged (Arabidopsis)

Results are given in words; binding and its absence hold for the method and conditions named. In cells and extracts the contact can be indirect. Binding calls can cover weak binding; strength is not graded here. Where a sequence is shown, tags or fusion partners need not be part of it. Each block holds one substance with its values, some of them ahead of it.
